Assay results: the supplement of paper PMC8728848
The other results are listed elsewhere or left out.

Key:
Test in all cases: glycan array binding signal (z-score within array); higher = stronger binding
Details in all cases: glycan notation: IUPAC condensed, linker removed
[1] = molecular target: Fuc(a1-2)Gal
Procedure, shortened: (§1)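 Negative Z-scores can be read as non-binding. The Z-score is calculated within each array and then averaged across arrays of one protein sequence at different concentrations or buffers and across linkers. Arrays, 3228 in all, were curated from the Consortium for Functional Glycomics database and kept only where the protein sequence was available.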

[2] = molecular target: Fuc(a1-2)Gal(b1-3)GalNAc
Procedure, shortened: as §1

[3] = molecular target: Fuc(a1-2)Gal(b1-3)GalNAc(a1-3)[Fuc(a1-2)]Gal(b1-4)Glc
Procedure, shortened: as §1

[4] = molecular target: Fuc(a1-2)Gal(b1-3)GalNAc(a1-3)[Fuc(a1-2)]Gal(b1-4)GlcNAc
Procedure, shortened: as §1

[5] = molecular target: Fuc(a1-2)Gal(b1-3)GalNAc(b1-3)Gal
Procedure, shortened: as §1

[6] = molecular target: Fuc(a1-2)Gal(b1-3)GalNAc(b1-3)Gal(a1-4)Gal(b1-4)Glc
Procedure, shortened: as §1

[7] = molecular target: Fuc(a1-2)Gal(b1-3)GalNAc(b1-4)[Neu5Ac(a2-3)]Gal(b1-4)Glc
Procedure, shortened: as §1

[8] = molecular target: Fuc(a1-2)Gal(b1-3)GlcNAc
Procedure, shortened: as §1

[9] = molecular target: Fuc(a1-2)Gal(b1-3)GlcNAc(b1-2)Man(a1-3)[Fuc(a1-2)Gal(b1-3)GlcNAc(b1-2)Man(a1-6)]Man(b1-4)GlcNAc(b1-4)GlcNAc
Procedure, shortened: as §1

[10] = molecular target: Fuc(a1-2)Gal(b1-3)GlcNAc(b1-2)Man(a1-3)[Fuc(a1-2)Gal(b1-3)GlcNAc(b1-2)Man(a1-6)]Man(b1-4)GlcNAc(b1-4)[Fuc(a1-6)]GlcNAc
Procedure, shortened: as §1

[11] = molecular target: Fuc(a1-2)Gal(b1-3)GlcNAc(b1-3)Gal(b1-4)Glc
Procedure, shortened: as §1

[12] = molecular target: Fuc(a1-2)Gal(b1-3)GlcNAc(b1-3)GalNAc
Procedure, shortened: as §1

[13] = molecular target: Fuc(a1-2)Gal(b1-3)GlcNAc(b1-3)[Fuc(a1-2)Gal(b1-3)GlcNAc(b1-6)]GalNAc
Procedure, shortened: as §1

[14] = molecular target: Fuc(a1-2)Gal(b1-3)GlcNAc(b1-3)[Gal(b1-4)GlcNAc(b1-6)]Gal(b1-4)Glc
Procedure, shortened: as §1

[15] = molecular target: Fuc(a1-2)Gal(b1-3)GlcNAc(b1-3)[Neu5Ac(a2-6)Gal(b1-4)GlcNAc(b1-6)]Gal(b1-4)Glc
Procedure, shortened: as §1

[16] = molecular target: Fuc(a1-2)Gal(b1-3)GlcNAc6S
Procedure, shortened: as §1

[17] = molecular target: Fuc(a1-2)Gal(b1-3)[Fuc(a1-4)]GlcNAc
Procedure, shortened: as §1

[18] = molecular target: Fuc(a1-2)Gal(b1-3)[Fuc(a1-4)]GlcNAc(b1-2)Man(a1-3)[Fuc(a1-2)Gal(b1-3)[Fuc(a1-4)]GlcNAc(b1-2)Man(a1-3)]Man(b1-4)GlcNAc(b1-4)GlcNAc
Procedure, shortened: as §1

[19] = molecular target: Fuc(a1-2)Gal(b1-3)[Fuc(a1-4)]GlcNAc(b1-2)Man(a1-3)[Fuc(a1-2)Gal(b1-3)[Fuc(a1-4)]GlcNAc(b1-2)Man(a1-6)]Man(b1-4)GlcNAc(b1-4)[Fuc(a1-6)]GlcNAc(b1-4)[Fuc(a1-6)]GlcNAc
Procedure, shortened: as §1

[20] = molecular target: Fuc(a1-2)Gal(b1-3)[Fuc(a1-4)]GlcNAc(b1-3)[Fuc(a1-3)[Gal(b1-4)]GlcNAc(b1-6)]Gal(b1-4)Glc
Procedure, shortened: as §1

[21] = molecular target: Fuc(a1-2)Gal(b1-3)[Fuc(a1-4)]GlcNAc(b1-3)[Gal(b1-4)GlcNAc(b1-6)]Gal(b1-4)Glc
Procedure, shortened: as §1

[22] = molecular target: Fuc(a1-2)Gal(b1-4)Glc
Procedure, shortened: as §1

[23] = molecular target: Fuc(a1-2)Gal(b1-4)Glc6S
Procedure, shortened: as §1

[24] = molecular target: Fuc(a1-2)Gal(b1-4)GlcNAc
Procedure, shortened: as §1

[25] = molecular target: Fuc(a1-2)Gal(b1-4)GlcNAc(b1-2)Man
Procedure, shortened: as §1

[26] = molecular target: Fuc(a1-2)Gal(b1-4)GlcNAc(b1-2)Man(a1-3)[Fuc(a1-2)Gal(b1-4)GlcNAc(b1-2)Man(a1-6)]Man(b1-4)GlcNAc(b1-4)GlcNAc
Procedure, shortened: as §1

[27] = molecular target: Fuc(a1-2)Gal(b1-4)GlcNAc(b1-2)Man(a1-3)[Fuc(a1-2)Gal(b1-4)GlcNAc(b1-2)Man(a1-6)]Man(b1-4)GlcNAc(b1-4)[Fuc(a1-6)]GlcNAc
Procedure, shortened: as §1

[28] = molecular target: Fuc(a1-2)Gal(b1-4)GlcNAc(b1-2)[Fuc(a1-2)Gal(b1-4)GlcNAc(b1-4)]Man(a1-3)[Fuc(a1-2)Gal(b1-4)GlcNAc(b1-2)Man(a1-6)]Man(b1-4)GlcNAc(b1-4)GlcNAc
Procedure, shortened: as §1

[29] = molecular target: Fuc(a1-2)Gal(b1-4)GlcNAc(b1-3)Gal(b1-4)GlcNAc
Procedure, shortened: as §1

[30] = molecular target: Fuc(a1-2)Gal(b1-4)GlcNAc(b1-3)Gal(b1-4)GlcNAc(b1-2)Man(a1-3)[Fuc(a1-2)Gal(b1-4)GlcNAc(b1-3)Gal(b1-4)GlcNAc(b1-2)Man(a1-6)]Man(b1-4)GlcNAc(b1-4)GlcNAc
Procedure, shortened: as §1

B1: Epf (Streptococcus pyogenes) (protein)
chain: GDHGPEFNGVMVVKAAEAEELPDDLMNFKGTWEVSADGSSGRFFSKGATDSYVFHLIPAKDVKKPGWREHNEVKDSYIKIDKQSIAARYKTSTTAPYSVAFKVNTKSLIKDHDYKITFEQGQIASGITVDYRIGSAFNKTTDDSFKISDESKYASNVKIEGEEQGFKQREQGDKTISFRTLKEGPMSLVLLSKVEKKPQGDLDVEFKNLKIIDVTNPSQLDKGVAYVGNKNVQLTLKSDDGRTNFEGDEISLFNSRGELLQTVTVTKDQQNPISITLSEDQAKSLKNKEKLKVSIKQKQSKKTSKDFFFEVGIDPKVEAKQKEKLLELDKVKKQIEDSINGDAWLPEKPVDLQGDHGLSAWSHPQFEK
Q: Which results are given for B1?
A: glycan array binding signal (z-score) [1]: -0.161; glycan array binding signal (z-score) [2]: -0.657; glycan array binding signal (z-score) [3]: -0.202; glycan array binding signal (z-score) [4]: -0.788; glycan array binding signal (z-score) [5]: 1.32; glycan array binding signal (z-score) [6]: 0.142; glycan array binding signal (z-score) [7]: 1.5; glycan array binding signal (z-score) [8]: -0.175; glycan array binding signal (z-score) [9]: -1.41; glycan array binding signal (z-score) [10]: 0.067; glycan array binding signal (z-score) [11]: 0.353; glycan array binding signal (z-score) [12]: -0.266; glycan array binding signal (z-score) [13]: 0.775; glycan array binding signal (z-score) [14]: -0.151; glycan array binding signal (z-score) [15]: 0.514; glycan array binding signal (z-score) [16]: 0.357; glycan array binding signal (z-score) [17]: -0.21; glycan array binding signal (z-score) [18]: -0.033; glycan array binding signal (z-score) [19]: -1.59; glycan array binding signal (z-score) [20]: 3.33; glycan array binding signal (z-score) [21]: -0.485; glycan array binding signal (z-score) [22]: -0.293; glycan array binding signal (z-score) [23]: -0.422; glycan array binding signal (z-score) [24]: 0.703; glycan array binding signal (z-score) [25]: 0.654; glycan array binding signal (z-score) [26]: 0.142; glycan array binding signal (z-score) [27]: 0.038; glycan array binding signal (z-score) [28]: -0.184; glycan array binding signal (z-score) [29]: -1.08; glycan array binding signal (z-score) [30]: -0.884
